## Library screening results

The chains behind the UniProt entries cited, without tags or fusion partners.
UniProt E9BF75, entry or part of it: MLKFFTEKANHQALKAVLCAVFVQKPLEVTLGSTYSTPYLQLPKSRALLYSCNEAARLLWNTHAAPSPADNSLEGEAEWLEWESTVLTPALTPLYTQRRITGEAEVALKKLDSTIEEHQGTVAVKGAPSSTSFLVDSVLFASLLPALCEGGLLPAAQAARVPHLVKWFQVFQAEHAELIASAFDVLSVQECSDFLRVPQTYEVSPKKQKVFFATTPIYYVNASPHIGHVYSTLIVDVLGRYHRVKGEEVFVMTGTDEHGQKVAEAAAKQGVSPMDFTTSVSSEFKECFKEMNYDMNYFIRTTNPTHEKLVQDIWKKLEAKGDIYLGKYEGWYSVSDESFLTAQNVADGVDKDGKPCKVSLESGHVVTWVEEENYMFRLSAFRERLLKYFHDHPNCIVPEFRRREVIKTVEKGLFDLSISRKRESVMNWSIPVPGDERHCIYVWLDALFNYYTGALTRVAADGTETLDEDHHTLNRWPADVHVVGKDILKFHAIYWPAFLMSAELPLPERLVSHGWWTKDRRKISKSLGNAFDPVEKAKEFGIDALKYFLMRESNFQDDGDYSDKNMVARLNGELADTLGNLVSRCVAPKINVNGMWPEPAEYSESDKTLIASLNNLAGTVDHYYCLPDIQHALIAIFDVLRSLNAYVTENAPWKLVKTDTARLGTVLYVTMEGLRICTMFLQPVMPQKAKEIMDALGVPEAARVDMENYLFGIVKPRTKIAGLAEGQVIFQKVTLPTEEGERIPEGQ

LdMetRS: 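Methionyl-tRNA synthetase (putative), Leishmania donovani (UniProt E9BF75). Primary screen of methionyl-tRNA synthetase; the read-out is not stated. The test concentration is not given. The values are filed as inhibition. About 68,000 compounds were tested under these conditions; 0.035% (about 24) showed 50% or more at least once.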
Mtb heat-shock: 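Assay on Mycobacterium tuberculosis, filed only as a heat shock assay from Cornell; the read-out is not stated. The concentration is filed as 10 mM, unlikely as a test dose, so the dose is not known. The record gives no direction; compounds that gave an IC50 in retests scored well above the rest, so higher reads as stronger inhibition. About 69,000 compounds were tested under these conditions; 1.4% (about 930) showed 50% or more at least once.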

Results are percentages, as filed.
How 0% and 100% were set is not recorded. Most values in the screen are low, and negative values occur.
Compounds were drawn at random from those tested, without regard to their results.
A dash means the value is not listed here; it may have been measured.

Compound | LdMetRS | Mtb heat-shock
O=C(O)C(F)(F)F.[H][C@]12CN(Cc3csc(C)n3)C(=O)[C@@]1([H])CN(c1ncc(CC)cn1)C2 | - | -6.706
c1cnnc(N2CCCC2CNCc2cccs2)c1 (stereo unspecified) | 25.68 | -0.3607
O=S(=O)(NC1=NCN(CCc2ccccc2)CN1)c1ccc(F)cc1 | 12.42 | -8.367
O=C(NC[C@H]1OC[C@@H](NC2CCCCC2)[C@@H]1O)c1cccs1 | 10.99 | -22.34
CC(SCCNS(=O)(=O)c1cnn(C)c1)c1cccs1 (stereo unspecified) | 8.807 | 2.319
CS(=O)(=O)NCCC(=O)NC1CCc2nccn2C1 (stereo unspecified) | 8.78 | 6.092
COc1ccc(C(=O)N2Cc3cc(C)ccc3OCC2CN(C)C)cc1.Cl (stereo unspecified) | - | -9.159
CC(C)CN(CC(=O)O)C(=O)c1ccc(F)cc1 | 9.686 | -4.795
NC(=O)c1ccc2c(c1)nc1n2CCN(Cc2ccccc2)C1 | 18.31 | -29.48
CNC(=O)c1ccc(-c2ccccc2)n1C | 21.82 | -18.59
Cc1ccccc1C(=O)NCC(O)c1ccc(F)c(F)c1 (stereo unspecified) | 10.09 | -0.8642
Cc1cccc(CN2C[C@@H](NC(=O)C3CC3)[C@H]3OCCC[C@H]32)n1 | 2.837 | -
Cc1ccc(-c2csc(-c3cccc(C(=O)O)c3)n2)cc1 | -2.405 | 6.479
Cc1nc(Nc2nccs2)cc(C2CCCN2)n1.Cl (stereo unspecified) | - | 11.98
Cc1cc(C(=O)N(C)Cc2cccs2)nc(N2CCCCC2)n1 | 2.764 | -13.25
CC(C)C(=O)N1CCC(C)(c2cc[nH]n2)CC1 | 19.62 | -13.82
CO[C@H]1CN(C(=O)c2cccc(C)n2)CC[C@@]12CCCO2 | 2.201 | -14.02
CCSCCn1cc(-c2nccs2)nn1 | 1.535 | 12.13
N#Cc1cnc(NCCCN2C(=O)COc3ccccc32)c(Cl)c1 | 15.22 | 12.8
CC(CN1CCC(CCO)CC1)n1cnc2ccccc21 (stereo unspecified) | 8.043 | -13.49
COc1ccc(CN2CCn3c(CO)nnc3C2)cc1CN1CCCC1 | 21.22 | -
CCO[C@H]1CN(CC2CC2)[C@@H]2CCCO[C@H]12 | 10.56 | -
COCCN(Cc1ccc(F)cc1C#N)CC(F)(F)F | 19.83 | -15.15
O=C1NCCN1C1CCCN(Cc2nnc(-c3ccc(F)cc3)o2)C1 (stereo unspecified) | 14.92 | 4.187
Cc1ccc(N2CCCC(NCc3ccc(C)s3)C2)nn1 (stereo unspecified) | 10.26 | -8.686
[H][C@@]12C[C@@H](c3nc(C)no3)CN(S(=O)(=O)CC)[C@]1([H])CCO2 | - | -2.536
O=C(O)C(F)(F)F.[H][C@@]12CN(C(=O)c3ccsc3)C[C@]1([H])OCCN2C(C)C | - | -22.87
CCc1ccc(C2CC(=O)Nc3cc(OC)c(NS(C)(=O)=O)cc32)o1 (stereo unspecified) | 11.17 | -3.664
O=C(NCc1ccco1)[C@@H]1CC[C@@H]2[C@@H](CCN2Cc2ccc(F)cc2)O1 | 13.98 | -
COCc1nc(C(=O)N2CCCC2c2cc(C)on2)cs1 (stereo unspecified) | 15.76 | 2.384
Cc1ccc2c(CC(=O)N3C[C@@H](O)[C@H](N(C)C)C3)coc2c1 | 10.11 | 4.358
Cn1ncc2c(=O)[nH]c(CN(Cc3ccco3)C3CCCC3)nc21 | 9.312 | -7.421
CC(C(=O)NCC(C)(C)c1ccc2c(c1)OCO2)n1ccnc1 (stereo unspecified) | 12.7 | 13.97
CCSc1ccc(C(=O)N2CCC3(CC2)[C@H](O)C[C@@H]3O)s1 | 14.36 | -1.291
CCN(Cc1cccc(C)c1)Cn1nc(C)c2c(C)onc2c1=O | 23.36 | -2.411
NC(=O)CN1CC2(CCC1=O)CCN(Cc1ccc(Cl)c(F)c1)CC2 | 10.06 | 7.107
CCc1nnsc1C(=O)NCCC1CN(C(C)C)CCO1 (stereo unspecified) | 13.4 | -5.809
CC(C)CN1CCCn2nc(CNC(=O)CCCc3cn[nH]c3)cc2C1 | 14.63 | -11.52
Cn1ncnc1CNC1CCc2cc(Cl)ccc21 (stereo unspecified) | 10.09 | 11.75
O=C(NCCCn1ccnc1)N1CCCC1c1cccs1 (stereo unspecified) | 14.11 | 11.81
OCCCN1CCOC(c2ccc(F)cc2)C1 (stereo unspecified) | 8.602 | 2.939
CCOC(=O)CSc1nnc(C(N)CC(C)C)o1 (stereo unspecified) | 18.7 | -
O=C(O)C(F)(F)F.c1cnc(N2CCOCC3(CN(Cc4cc[nH]n4)CCO3)C2)nc1 (stereo unspecified) | - | -18.22
CC(C)=CCN1CCN(C(=O)COc2ccccc2)[C@H]2CS(=O)(=O)C[C@H]21 | 6.4 | -
CC(=O)Nn1ccc2c(nnc3c(-c4ccc(F)cc4)cnn32)c1=O | 1.238 | -19.22
Cc1ccc(CN2C[C@H]3CN(Cc4ccccc4Cl)CCN3C2=O)cc1 | 3.297 | -
Cc1ccc(-c2cc(CNc3ncnc4c3CCNCC4)no2)cc1 | 11.11 | -5.371
O=C(c1c[nH]c(=O)c(Cl)c1)N1CCc2ccccc2C1 | 7.554 | -2.379
Cc1ccc(C(=O)N2C[C@@H]3OCCN(CC4CCCC4)[C@@H]3C2)cn1 | 9.453 | -
CC(C)C(C(=O)N1CCN(c2nccs2)CC1)n1cncn1 (stereo unspecified) | 26.82 | -6.023
COC(=O)C(O)C1CCN(Cc2cccc(-n3cccn3)c2)CC1 (stereo unspecified) | 10.42 | -8.722
COc1ccccc1OC1(C(=O)O)CCN(c2nccnc2C)CC1 | 15.5 | -0.07693
Cc1cnn(CC2CCCN2Cc2cc(C)on2)c1 (stereo unspecified) | 9.474 | -3.263
CCOCCN1CCN(CCc2nc3ccccc3c(=O)[nH]2)CC1 | 12.01 | -12.75
CCCc1cc(CNC2CCN(c3nc(C)cc(C)n3)CC2)on1 | 19.63 | -0.9579
CCOC(=O)N1CCC2(CCNC2)C1 (stereo unspecified) | 8.889 | -
CC(C)c1nc(CCNC(=O)NCc2ccnc(N(C)C)c2)cs1 | 13.89 | -13.43
Cc1cc(C)cc(-c2cc(C3CCOC3)c(C#N)c(N)n2)c1 (stereo unspecified) | 2.198 | -2.331
CC(=O)N1CCC(C)(c2nc(C)no2)CC1 | 5.249 | -4.506
CC(C)c1nn(C)cc1CNCc1ccnc(N(C)C)c1.Cl | - | -35.39
CCn1cnnc1C1CCN(C(=O)COc2ccc(Cl)cc2)CC1 | 7.311 | 8.109
Cc1ccc2c(c1)c(CNC(=O)C1CCN(C(C)C)CC1)nn2C | 13.41 | -20.11
CN1CC2(CCN(C(=O)COc3ccc(Cl)cc3Cl)CC2)OC1=O | 5.514 | -39.01
Cc1oc(-c2ccsc2)nc1CN1CCCC(c2ccnn2C)C1 (stereo unspecified) | 9.581 | 7.141
CN1CCO[C@H]2CN(C(=O)c3ccoc3)C[C@H]21 | 5.333 | -
[H][C@@]12CC[C@H](Oc3ccccc3Cl)[C@]1([H])CN(C(=O)CNC(C)=O)C2 | - | -17.81
CCOC(=O)C1CCN(C(=O)c2cc(Br)ccc2-n2cnnn2)CC1 | 20.87 | 2.973
O=C1c2cnc(N3CCOCC3)nc2CN1C1CCS(=O)(=O)C1 (stereo unspecified) | 25.56 | 3.438
O=S(=O)(CC1CCCO1)Nc1cc(Cl)ccc1-n1cccn1 (stereo unspecified) | -0.8065 | -6.101
Cn1ccnc1C(=O)N1CCOC(Cc2ccc(Cl)cc2)C1 (stereo unspecified) | 12.86 | -7.982
CS(=O)(=O)NCC1CCCN(c2ccc(C#N)cn2)C1 (stereo unspecified) | 7.532 | 12.27
O=C(c1cccnc1)N1CCC2(CC1)CCN(c1ccsc1)C2=O | -0.9804 | -
CS(=O)(=O)NCc1nnc2n1CCN(Cc1ccc(F)cc1)C2 | 19.9 | 1.084
O=C(NCCO)NC(c1ccccc1)c1ccc2c(c1)CCCO2 (stereo unspecified) | 13.48 | 7.132
CN(C)C(=O)c1cc(-c2cnc(N)nc2)nc2cc(F)ccc12 | 8.696 | 11.53
CN(C)C(=O)N1CCN(CCn2nc3ccccn3c2=O)CC1 | 13.38 | -9.024
CCC(=O)NCC(=O)NCC1(O)CCC(C(C)(C)C)CC1 (stereo unspecified) | 13.18 | -38.48
O=C(CN1CCC(c2ccnn2CCO)CC1)NC1CCCC1 | 25.63 | -16.92
Cc1nc(CC(=O)N2CCCN(c3ccc(C#N)cc3)CC2)cs1 | 17.61 | -21.92
CC(C)NC(=O)C[C@@H]1CCNC[C@@H]1Cc1cc(-c2ccccc2)on1 | 9.446 | -13.93

The first 4 entries again:

| Compound | LdMetRS | Mtb heat-shock |
|---|---|---|
| `O=C(O)C(F)(F)F.[H][C@]12CN(Cc3csc(C)n3)C(=O)[C@@]1([H])CN(c1ncc(CC)cn1)C2` | - | -6.706 |
| `c1cnnc(N2CCCC2CNCc2cccs2)c1` (stereo unspecified) | 25.68 | -0.3607 |
| `O=S(=O)(NC1=NCN(CCc2ccccc2)CN1)c1ccc(F)cc1` | 12.42 | -8.367 |
| `O=C(NC[C@H]1OC[C@@H](NC2CCCCC2)[C@@H]1O)c1cccs1` | 10.99 | -22.34 |

The values are deposited in ChEMBL (CHEMBL3988442, “University of Dundee, Small-Polar-MMV Screening Library” (2021)).